Laboratory results from the supplement of paper PMC10849652.
The other results are listed elsewhere or left out.

By UniProt entry, the sequences of proteins in these tests, tags left out. Where a name states a change or a piece, a line headed by the entry shows the natural chain unless it says otherwise.
UniProt Q99829: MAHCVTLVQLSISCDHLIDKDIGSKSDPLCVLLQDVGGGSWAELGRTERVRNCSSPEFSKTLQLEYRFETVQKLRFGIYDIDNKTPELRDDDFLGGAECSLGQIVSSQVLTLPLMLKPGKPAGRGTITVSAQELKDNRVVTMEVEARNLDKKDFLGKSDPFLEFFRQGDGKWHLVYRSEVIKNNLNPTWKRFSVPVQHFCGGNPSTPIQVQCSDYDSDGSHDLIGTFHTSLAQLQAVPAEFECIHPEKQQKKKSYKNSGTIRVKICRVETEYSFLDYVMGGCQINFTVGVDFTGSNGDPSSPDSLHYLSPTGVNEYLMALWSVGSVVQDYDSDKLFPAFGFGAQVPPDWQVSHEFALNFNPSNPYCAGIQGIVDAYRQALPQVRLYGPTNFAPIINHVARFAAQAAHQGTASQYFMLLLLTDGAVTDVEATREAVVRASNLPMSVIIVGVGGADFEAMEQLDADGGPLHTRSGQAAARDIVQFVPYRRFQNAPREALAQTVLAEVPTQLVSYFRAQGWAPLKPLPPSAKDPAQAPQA
UniProt Q86WW8: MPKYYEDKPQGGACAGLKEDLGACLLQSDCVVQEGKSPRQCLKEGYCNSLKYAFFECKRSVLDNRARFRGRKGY
UniProt P39060, whole entry, looked up: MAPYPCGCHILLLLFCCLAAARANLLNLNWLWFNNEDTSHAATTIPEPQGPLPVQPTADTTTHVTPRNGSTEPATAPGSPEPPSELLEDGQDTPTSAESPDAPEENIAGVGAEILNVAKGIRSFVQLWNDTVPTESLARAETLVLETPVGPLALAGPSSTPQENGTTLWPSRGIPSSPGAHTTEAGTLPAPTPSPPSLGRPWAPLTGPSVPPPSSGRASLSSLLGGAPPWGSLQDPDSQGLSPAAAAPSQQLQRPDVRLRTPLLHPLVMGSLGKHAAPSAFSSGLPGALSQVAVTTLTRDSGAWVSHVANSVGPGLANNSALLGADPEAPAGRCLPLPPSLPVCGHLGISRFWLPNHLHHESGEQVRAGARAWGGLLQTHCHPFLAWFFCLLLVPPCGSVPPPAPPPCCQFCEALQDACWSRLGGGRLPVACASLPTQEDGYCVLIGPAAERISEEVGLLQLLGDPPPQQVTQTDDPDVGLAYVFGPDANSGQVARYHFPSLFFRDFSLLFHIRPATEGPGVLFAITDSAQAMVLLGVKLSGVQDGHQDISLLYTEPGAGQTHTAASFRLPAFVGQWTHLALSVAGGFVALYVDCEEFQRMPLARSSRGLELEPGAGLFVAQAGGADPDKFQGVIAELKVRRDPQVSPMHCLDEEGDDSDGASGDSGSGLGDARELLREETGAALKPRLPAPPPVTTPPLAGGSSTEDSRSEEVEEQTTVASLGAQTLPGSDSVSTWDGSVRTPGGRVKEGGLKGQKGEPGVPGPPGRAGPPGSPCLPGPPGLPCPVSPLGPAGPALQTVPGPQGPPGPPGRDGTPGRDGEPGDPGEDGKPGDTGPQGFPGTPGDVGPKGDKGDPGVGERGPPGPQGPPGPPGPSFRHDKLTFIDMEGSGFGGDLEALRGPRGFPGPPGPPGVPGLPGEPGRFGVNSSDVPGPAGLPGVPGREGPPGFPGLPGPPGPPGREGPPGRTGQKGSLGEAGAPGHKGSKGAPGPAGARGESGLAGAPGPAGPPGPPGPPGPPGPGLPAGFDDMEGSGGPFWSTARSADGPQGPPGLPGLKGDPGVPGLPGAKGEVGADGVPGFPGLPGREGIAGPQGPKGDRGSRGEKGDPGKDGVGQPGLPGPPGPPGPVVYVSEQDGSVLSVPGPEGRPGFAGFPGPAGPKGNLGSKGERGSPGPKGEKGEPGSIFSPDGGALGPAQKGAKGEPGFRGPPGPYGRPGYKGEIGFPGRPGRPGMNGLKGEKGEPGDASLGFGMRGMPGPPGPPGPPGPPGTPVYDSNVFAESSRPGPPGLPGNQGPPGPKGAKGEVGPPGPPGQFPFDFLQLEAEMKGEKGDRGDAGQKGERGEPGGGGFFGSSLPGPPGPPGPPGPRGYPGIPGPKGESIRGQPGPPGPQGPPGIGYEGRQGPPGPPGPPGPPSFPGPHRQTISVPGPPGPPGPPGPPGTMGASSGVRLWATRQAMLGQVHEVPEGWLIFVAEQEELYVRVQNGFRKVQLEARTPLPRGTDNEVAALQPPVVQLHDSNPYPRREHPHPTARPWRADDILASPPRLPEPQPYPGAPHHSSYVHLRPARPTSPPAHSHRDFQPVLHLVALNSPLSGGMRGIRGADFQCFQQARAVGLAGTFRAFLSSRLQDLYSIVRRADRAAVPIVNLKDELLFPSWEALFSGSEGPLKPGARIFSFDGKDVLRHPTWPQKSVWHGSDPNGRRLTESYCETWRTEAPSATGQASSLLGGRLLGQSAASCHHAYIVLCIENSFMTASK
UniProt Q9Y646: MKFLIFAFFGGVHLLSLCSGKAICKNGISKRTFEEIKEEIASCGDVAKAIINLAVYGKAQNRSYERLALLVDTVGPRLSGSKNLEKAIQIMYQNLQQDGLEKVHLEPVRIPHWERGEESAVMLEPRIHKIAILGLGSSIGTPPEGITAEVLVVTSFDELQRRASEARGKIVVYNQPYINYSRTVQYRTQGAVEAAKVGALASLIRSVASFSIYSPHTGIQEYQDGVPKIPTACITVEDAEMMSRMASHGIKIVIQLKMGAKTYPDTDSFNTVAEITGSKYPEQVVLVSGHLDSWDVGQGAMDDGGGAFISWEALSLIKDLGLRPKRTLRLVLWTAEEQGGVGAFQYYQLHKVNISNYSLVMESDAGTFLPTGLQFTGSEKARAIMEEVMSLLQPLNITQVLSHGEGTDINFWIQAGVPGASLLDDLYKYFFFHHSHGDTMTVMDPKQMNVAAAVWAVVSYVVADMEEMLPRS
UniProt Q8N668, whole entry, looked up: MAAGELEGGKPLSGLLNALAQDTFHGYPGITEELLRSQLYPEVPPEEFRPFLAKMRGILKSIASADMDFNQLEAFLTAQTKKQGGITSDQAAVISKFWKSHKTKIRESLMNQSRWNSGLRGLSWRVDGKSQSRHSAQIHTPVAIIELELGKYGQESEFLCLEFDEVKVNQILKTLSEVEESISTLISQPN
UniProt Q92905, whole entry, looked up: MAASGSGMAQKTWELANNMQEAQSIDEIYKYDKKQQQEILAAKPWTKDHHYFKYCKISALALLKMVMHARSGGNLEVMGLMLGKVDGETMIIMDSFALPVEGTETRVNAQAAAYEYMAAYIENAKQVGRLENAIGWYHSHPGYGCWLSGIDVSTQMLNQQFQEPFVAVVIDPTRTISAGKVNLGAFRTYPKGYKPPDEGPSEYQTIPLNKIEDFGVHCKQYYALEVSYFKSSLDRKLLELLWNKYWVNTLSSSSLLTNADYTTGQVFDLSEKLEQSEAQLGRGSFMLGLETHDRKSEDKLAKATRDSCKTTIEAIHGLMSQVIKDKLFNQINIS
UniProt Q96JB2: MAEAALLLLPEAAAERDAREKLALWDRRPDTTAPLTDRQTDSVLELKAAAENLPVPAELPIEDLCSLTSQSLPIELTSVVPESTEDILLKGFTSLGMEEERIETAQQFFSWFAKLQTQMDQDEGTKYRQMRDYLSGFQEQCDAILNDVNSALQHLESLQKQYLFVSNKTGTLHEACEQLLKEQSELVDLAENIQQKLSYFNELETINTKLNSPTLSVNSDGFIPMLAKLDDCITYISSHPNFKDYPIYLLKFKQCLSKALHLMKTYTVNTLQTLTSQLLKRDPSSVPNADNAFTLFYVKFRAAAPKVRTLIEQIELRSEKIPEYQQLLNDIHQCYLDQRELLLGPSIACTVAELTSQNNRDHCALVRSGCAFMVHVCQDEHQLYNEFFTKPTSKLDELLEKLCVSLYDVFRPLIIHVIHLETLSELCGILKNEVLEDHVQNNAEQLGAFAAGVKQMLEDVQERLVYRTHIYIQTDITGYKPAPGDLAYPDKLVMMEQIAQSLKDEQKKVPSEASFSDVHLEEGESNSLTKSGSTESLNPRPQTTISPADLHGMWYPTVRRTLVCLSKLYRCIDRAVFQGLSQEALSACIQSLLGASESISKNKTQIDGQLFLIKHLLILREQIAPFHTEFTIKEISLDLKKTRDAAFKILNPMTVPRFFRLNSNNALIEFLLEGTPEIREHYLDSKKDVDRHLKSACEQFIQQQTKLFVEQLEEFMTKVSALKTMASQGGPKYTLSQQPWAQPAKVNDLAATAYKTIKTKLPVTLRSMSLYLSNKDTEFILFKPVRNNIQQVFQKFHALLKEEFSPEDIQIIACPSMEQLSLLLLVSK
UniProt P57737: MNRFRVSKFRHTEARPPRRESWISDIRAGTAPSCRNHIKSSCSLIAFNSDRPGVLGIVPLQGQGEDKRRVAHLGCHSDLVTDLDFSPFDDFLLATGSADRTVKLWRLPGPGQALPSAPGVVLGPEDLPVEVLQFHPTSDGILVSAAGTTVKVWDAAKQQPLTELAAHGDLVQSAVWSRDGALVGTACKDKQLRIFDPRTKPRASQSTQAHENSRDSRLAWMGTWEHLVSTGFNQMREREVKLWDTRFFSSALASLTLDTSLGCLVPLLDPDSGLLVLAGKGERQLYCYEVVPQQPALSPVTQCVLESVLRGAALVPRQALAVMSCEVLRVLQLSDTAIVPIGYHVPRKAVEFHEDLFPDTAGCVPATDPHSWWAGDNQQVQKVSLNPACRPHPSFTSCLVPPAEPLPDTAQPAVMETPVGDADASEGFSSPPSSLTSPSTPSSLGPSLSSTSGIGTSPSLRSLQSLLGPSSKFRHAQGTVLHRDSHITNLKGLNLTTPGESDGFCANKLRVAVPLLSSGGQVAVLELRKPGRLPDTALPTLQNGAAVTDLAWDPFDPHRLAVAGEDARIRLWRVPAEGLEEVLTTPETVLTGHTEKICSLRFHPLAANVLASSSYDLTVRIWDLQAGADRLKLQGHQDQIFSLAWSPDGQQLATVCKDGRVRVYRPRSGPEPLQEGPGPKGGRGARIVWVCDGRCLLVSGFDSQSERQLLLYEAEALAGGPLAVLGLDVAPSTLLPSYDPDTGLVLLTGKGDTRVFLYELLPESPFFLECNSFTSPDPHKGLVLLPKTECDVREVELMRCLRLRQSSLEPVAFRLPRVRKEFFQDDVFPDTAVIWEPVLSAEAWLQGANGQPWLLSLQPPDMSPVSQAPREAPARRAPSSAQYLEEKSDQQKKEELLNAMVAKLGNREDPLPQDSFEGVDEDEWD
UniProt P10606, whole entry, looked up: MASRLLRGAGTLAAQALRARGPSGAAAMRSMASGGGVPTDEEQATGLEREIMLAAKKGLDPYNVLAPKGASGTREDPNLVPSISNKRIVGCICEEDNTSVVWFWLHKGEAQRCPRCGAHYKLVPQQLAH
UniProt Q9NYJ1, whole entry, looked up: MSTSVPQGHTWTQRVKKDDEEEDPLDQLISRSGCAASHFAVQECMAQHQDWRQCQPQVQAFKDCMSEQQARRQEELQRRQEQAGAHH
UniProt Q9UIV1, whole entry, looked up: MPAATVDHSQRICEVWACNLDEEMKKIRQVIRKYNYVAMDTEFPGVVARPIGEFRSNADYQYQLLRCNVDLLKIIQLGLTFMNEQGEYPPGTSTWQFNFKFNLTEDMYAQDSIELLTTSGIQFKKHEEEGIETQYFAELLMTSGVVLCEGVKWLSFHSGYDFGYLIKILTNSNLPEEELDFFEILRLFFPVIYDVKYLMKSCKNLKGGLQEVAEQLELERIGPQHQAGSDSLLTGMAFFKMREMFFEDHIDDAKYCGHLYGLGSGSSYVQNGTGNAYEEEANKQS
UniProt Q9BR76, whole entry, looked up: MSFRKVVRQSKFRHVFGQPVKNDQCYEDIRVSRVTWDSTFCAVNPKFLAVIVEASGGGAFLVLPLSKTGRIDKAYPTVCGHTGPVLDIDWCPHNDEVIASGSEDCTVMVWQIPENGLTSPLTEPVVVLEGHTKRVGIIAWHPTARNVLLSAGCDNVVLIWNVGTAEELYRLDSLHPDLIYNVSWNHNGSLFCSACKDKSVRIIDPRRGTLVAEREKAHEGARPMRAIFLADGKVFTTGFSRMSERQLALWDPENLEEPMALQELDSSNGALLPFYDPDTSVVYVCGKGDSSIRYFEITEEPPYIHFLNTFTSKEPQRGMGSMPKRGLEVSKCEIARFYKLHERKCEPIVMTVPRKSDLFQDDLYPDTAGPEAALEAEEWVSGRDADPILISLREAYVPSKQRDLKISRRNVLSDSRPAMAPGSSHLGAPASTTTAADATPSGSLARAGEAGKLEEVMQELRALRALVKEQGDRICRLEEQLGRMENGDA
UniProt O75208: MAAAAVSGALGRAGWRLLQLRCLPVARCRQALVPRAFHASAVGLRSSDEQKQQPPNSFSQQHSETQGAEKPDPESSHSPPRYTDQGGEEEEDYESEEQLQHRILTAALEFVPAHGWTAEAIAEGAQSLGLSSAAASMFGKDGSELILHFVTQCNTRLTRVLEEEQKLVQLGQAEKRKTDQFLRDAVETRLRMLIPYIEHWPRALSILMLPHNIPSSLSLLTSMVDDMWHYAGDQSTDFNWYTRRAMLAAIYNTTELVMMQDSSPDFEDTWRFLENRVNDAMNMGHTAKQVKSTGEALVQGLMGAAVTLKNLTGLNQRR
UniProt Q14019: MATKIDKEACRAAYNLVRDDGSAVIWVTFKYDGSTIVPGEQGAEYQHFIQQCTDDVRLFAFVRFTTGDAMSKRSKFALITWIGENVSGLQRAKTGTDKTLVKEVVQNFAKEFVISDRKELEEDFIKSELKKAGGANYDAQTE

Compound: O=C1NC(=O)C(c2cnc3ccccn23)=C1c1cn2c3c(cc(F)cc13)CN(C(=O)N1CCCCC1)CC2
Assay: log2 fold change, soluble protein after heating vs DMSO (PISA); higher = thermal stabilisation; K562 lysate, 10 uM; active = over 0.2 and 3.5 SD of the protein, either way, in both replicates (recomputed)
Summary of the method: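 Thermal stability, expressed as log-two fold change relative to solvent controls, is given from duplicates. Crude K562 extract in PBS pH 7.4 with 1 mM MgCl2, at 1 mg/mL protein, was treated with 10 μM compound for 30 min and heated in aliquots for 3 min across 48°C-58°C. After pooling, adjustment to 0.5% NP-40 at 4°C and centrifugation at 21,000xg for 90 min, supernatant protein was measured by TMTpro 16plex LC-MS/MS with channel sums equalised.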

log2 fold change, inactive:
COG1 (UniProt Q8WTW3) 0.042
CPNE1 (UniProt Q99829) 0
COX5A (UniProt P20674) 0
COA5 (UniProt Q86WW8) 0.011
CNPY3 (UniProt Q9BT09) -0.004
CNPY4 (UniProt Q8N129) 0.086
COL18A1 (UniProt P39060) -0.018
CPQ (UniProt Q9Y646) 0.013
COMMD1 (UniProt Q8N668) -0.034
COL15A1 (UniProt P39059) 0.006
COX18 (UniProt Q8N8Q8) -0.003
COIL (UniProt P38432) -0.03
CPT2 (UniProt P23786) 0.042
COQ5 (UniProt Q5HYK3) -0.023
COPS7B isoform 3 (UniProt Q9H9Q2) 0.076
CNOT3 (UniProt O75175) 0.026
CNNM2 (UniProt Q9H8M5) 0.051
COPS5 (UniProt Q92905) 0.004
COPS7A (UniProt Q9UBW8) 0.003
COG3 (UniProt Q96JB2) 0.06
CRACR2A isoform 2 (UniProt Q9BSW2) 0.073
COX4I1 (UniProt P13073) 0.025
COX7C (UniProt P15954) -0.033
CNOT4 isoform 6 (UniProt O95628) -0.057
CORO7 (UniProt P57737) 0.019
COLGALT2 (UniProt Q8IYK4) -0.06
COPS4 (UniProt Q9BT78) 0.005
COX5B (UniProt P10606) 0.043
COX15 (UniProt Q7KZN9) -0.007
COPS3 (UniProt Q9UNS2) 0.078
CORO7 isoform 3 (UniProt P57737) 0.004
COA4 isoform 2 (UniProt Q9NYJ1) 0.079
COMMD2 (UniProt Q86X83) -0.05
CNOT11 (UniProt Q9UKZ1) 0.022
CNOT7 (UniProt Q9UIV1) 0.028
CNOT9 (UniProt Q92600) 0.018
CORO1B (UniProt Q9BR76) -0.004
COQ9 (UniProt O75208) 0.031
COTL1 (UniProt Q14019) -0.021

At a glance, some entries already given.
log2 fold change, inactive:
COX7C (UniProt P15954) -0.033
CNOT4 isoform 6 (UniProt O95628) -0.057
CORO7 (UniProt P57737) 0.019
